Measured values published in PubChem BioAssay AID270 (DTP/NCI, 2004).
The list shows only some results of the screen, not a fair sample: it is rich in T/C values a quarter to a half above the control, in often repeated tests (any T/C) and in doses without a T/C. Further doses and runs are listed elsewhere. T/C is the treated group as % of the vehicle group. Some entries give survivors of the animals treated and no T/C: the source files T/C as zero there, which appears to mark a toxic dose or a test without result, not a measured value. Some doses without a T/C left all or most animals alive at the check, yet need not have been tolerated: survival well below the control is almost never listed, so the zero probably covers shortened survival too. Counts of survivors are from the toxicity check (mostly the fifth day) where no day follows; animals may have died later. Schedules are NCI's codes, taken here to give the interval after Q, in days (D) or hours (H), and the number of doses after X. Where survival is the endpoint, the PubChem record calls one and a half times the control and up active, and a quarter to a half above the control has no call in these data; cut-offs in other NCI protocols can differ.

System: BDF1 mice, s.c. Lewis lung carcinoma, T/C %
Experiment: NCI In Vivo Anticancer Drug Screen. Data for tumor model Lewis Lung Carcinoma (subcutaneous) in B6D2F1 (BDF1) mice
Method in brief: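 First, mice carry a transplantable tumor. Next, groups receive either compound or vehicle. Finally, survival or tumor dimensions in the dosed animals are divided by the corresponding control figure.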

[1] = T/C endpoint: median survival time, dose: 9.4 mg/kg/injection, schedule: Q01DX009 (ip), vehicle: saline with Tween-80, higher T/C = longer survival
[2] = T/C endpoint: median survival time, dose: 25.0 mg/kg/injection, schedule: Q01DX009 (ip), vehicle: olive oil, sesame oil, peanut oil, higher T/C = longer survival
[3] = T/C endpoint: median survival time, dose: 50.0 mg/kg/injection, schedule: Q01DX009 (ip), vehicle: olive oil, sesame oil, peanut oil, higher T/C = longer survival
[4] = T/C endpoint: median survival time, dose: 100.0 mg/kg/injection, schedule: Q01DX009 (ip), vehicle: olive oil, sesame oil, peanut oil, higher T/C = longer survival
[5] = T/C endpoint: median survival time, dose: 12.5 mg/kg/injection, schedule: Q01DX009 (ip), vehicle: Klucel (hydroxypropylcellulose) (HPC), higher T/C = longer survival
[6] = T/C endpoint: median survival time, dose: 50.0 mg/kg/injection, schedule: Q01DX009 (ip), vehicle: Klucel (hydroxypropylcellulose) (HPC), higher T/C = longer survival
[7] = T/C endpoint: median survival time, dose: 100.0 mg/kg/injection, schedule: Q01DX009 (ip), vehicle: Klucel (hydroxypropylcellulose) (HPC), higher T/C = longer survival
[8] = T/C endpoint: median survival time, dose: 20.0 mg/kg/injection, schedule: Q04DX004 (ip), vehicle: gum acacia, higher T/C = longer survival

## NC(=S)N/N=C/c1ccc(O)cn1
[1]
  T/C: 131 % of control
  survivor count: 10 of 10
T/C endpoint: median survival time, dose: 18.8 mg/kg/injection, schedule: Q01DX009 (ip), vehicle: saline with Tween-80, higher T/C = longer survival
  T/C: 129 % of control
T/C endpoint: median survival time, dose: 75.0 mg/kg/injection, schedule: Q01DX009 (ip), vehicle: saline with Tween-80, higher T/C = longer survival
  T/C: 139 % of control
T/C endpoint: median survival time, dose: 150.0 mg/kg/injection, schedule: Q01DX009 (ip), vehicle: saline with Tween-80, higher T/C = longer survival
  survivor count: 10 of 10

## Oc1c(Cl)cc(Cl)cc1/C=N/NC(=S)Nc1cc(C(F)(F)F)cc(C(F)(F)F)c1
T/C endpoint: median survival time, dose: 6.25 mg/kg/injection, schedule: Q01DX009 (ip), vehicle: olive oil, sesame oil, peanut oil, higher T/C = longer survival
  survivor count: 10 of 10
[2]
  survivor count: 10 of 10
[3]
  survivor count: 9 of 10
[4]
  survivor count: 10 of 10

## Nc1nc(=S)c2[nH]c(N=Nc3ccc(S(=O)(=O)Nc4ccccn4)cc3)nc2[nH]1
T/C endpoint: median survival time, dose: 6.25 mg/kg/injection, schedule: Q01DX009 (ip), vehicle: Klucel (hydroxypropylcellulose) (HPC), higher T/C = longer survival
  survivor count: 10 of 10
[5]
  survivor count: 9 of 10
T/C endpoint: median survival time, dose: 25.0 mg/kg/injection, schedule: Q01DX009 (ip), vehicle: Klucel (hydroxypropylcellulose) (HPC), higher T/C = longer survival
  survivor count: 10 of 10
[6]
  survivor count: 8 of 10
[7]
  survivor count: 7 of 10

## Nc1nc(N)c(N=O)c(Nc2ccc(Br)cc2)n1
T/C endpoint: mean tumor weight, dose: 480.0 mg/kg/injection, schedule: Q01DX011 (ip), vehicle: other, higher T/C = larger tumour
  survivor count: 2 of 6

## COC12C(COC(=O)NCCO)C3=C(C(=O)C(C)=C(N)C3=O)N1CC1NC12 (stereo unspecified)
[5]
  survivor count: 10 of 10
[6]
  survivor count: 10 of 10

## O=NN(CCCl)C(=O)N[C@H]1CCCC[C@@H]1Cl
T/C endpoint: median survival time, dose: 4.5 mg/kg/injection, schedule: Q01DX001 (ip), vehicle: Klucel (hydroxypropylcellulose) (HPC), higher T/C = longer survival
  T/C: 128 % of control
[8]
  T/C: 148 % of control
  survivor count: 10 of 10 on day 12
T/C endpoint: median survival time, dose: 25.0 mg/kg/injection, schedule: Q04DX004 (ip), vehicle: gum acacia, higher T/C = longer survival
  T/C: 133 % of control
T/C endpoint: median survival time, dose: 36.0 mg/kg/injection, schedule: Q01DX001 (ip), vehicle: Klucel (hydroxypropylcellulose) (HPC), higher T/C = longer survival
  T/C: 126 % of control
T/C endpoint: median survival time, dose: 38.0 mg/kg/injection, schedule: Q01DX001 (ip), vehicle: gum acacia, higher T/C = longer survival
  T/C: 138 % of control
T/C endpoint: median survival time, dose: 45.0 mg/kg/injection, schedule: Q07DX002 (ip), vehicle: gum acacia, higher T/C = longer survival
  T/C: 142 % of control
T/C endpoint: median survival time, dose: 57.0 mg/kg/injection, schedule: Q01DX001 (ip), vehicle: gum acacia, higher T/C = longer survival
  T/C: 135 % of control

## CC(C)CCC[C@@H](C)[C@H]1CC[C@H]2[C@@H]3CC=C4C[C@@H](O)CC[C@]4(C)[C@H]3CC[C@]12C
T/C endpoint: median survival time, dose: 1600.0 mg/kg/injection, schedule: Q01DX009 (ip), vehicle: Klucel (hydroxypropylcellulose) (HPC), higher T/C = longer survival
  survivor count: 9 of 10

## C1CCNCC1
T/C endpoint: mean tumor weight, dose: 200.0 mg/kg/injection, schedule: Q01DX011 (ip), vehicle: saline, higher T/C = larger tumour
  survivor count: 0 of 6
T/C endpoint: mean tumor weight, dose: 400.0 mg/kg/injection, schedule: Q01DX011 (ip), vehicle: saline, higher T/C = larger tumour
  survivor count: 0 of 6

## O=C1N(Br)C(=O)C(c2ccc(Cl)cc2)(c2ccc(Cl)cc2)N1Br
[6]
  survivor count: 10 of 10
[7]
  survivor count: 10 of 10
T/C endpoint: median survival time, dose: 200.0 mg/kg/injection, schedule: Q01DX009 (ip), vehicle: Klucel (hydroxypropylcellulose) (HPC), higher T/C = longer survival
  survivor count: 6 of 10

## Cc1ccc2nc(-c3ccc(N=Cc4ccccc4O)cc3)sc2c1
T/C endpoint: median survival time, dose: 12.5 mg/kg/injection, schedule: Q01DX009 (ip), vehicle: olive oil, sesame oil, peanut oil, higher T/C = longer survival
  survivor count: 10 of 10
[2]
  survivor count: 9 of 10
[3]
  survivor count: 10 of 10
[4]
  survivor count: 10 of 10
T/C endpoint: median survival time, dose: 400.0 mg/kg/injection, schedule: Q01DX009 (ip), vehicle: olive oil, sesame oil, peanut oil, higher T/C = longer survival
  survivor count: 10 of 10
